# PubChem BioAssay AID1259254, NCATS, 2017
# Purpose: 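Genome-wide screen for genes that prevent DNA re-replication in cancer cells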 (primary screen)
# System: human HCT116 colorectal cancer cells
# Reagent: single siRNA against human genes
# Time to read-out: 3 days
# Measurement: 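Imaged Hoechst DNA stain sorts each cell into a cycle phase by DNA amount; per plate, G2 fraction set to 0% for non-targeting and 100% for GMNN siRNA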
# Direction: G2 robust z-score: higher = more G2 cells, more excess DNA replication
# Hit rule: 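An siRNA counts as active if its G2 robust z-score lies at least 5 MADs above the screen median; here such calls match roughly 38% of GMNN control or more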
# The whole screen tested about 59,000 reagents; this is an unselected part. About 1,550 of all reagents (2.6%) count as active. 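G2 share is only a proxy for re-replication; each gene was hit by three separate siRNAs, and active genes were retested.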 Unmarked entries are inactive. Reagents against one gene are numbered here. Further read-outs or replicates are left out here. Not given: the amount of reagent.
gene symbol,reagent,G2 robust z-score
ABHD18 (GeneID 80167),1,-0.568
ABHD18 (GeneID 80167),2,-0.16
ABHD18 (GeneID 80167),3,0.837
MCRIP1 (GeneID 348262),1,0.246
MCRIP1 (GeneID 348262),2,0.00295
MCRIP1 (GeneID 348262),3,2.54
GTF2F2P2 (GeneID 728633),1,4.37
GTF2F2P2 (GeneID 728633),2,-0.817
GTF2F2P2 (GeneID 728633),3,3.72
ZNF577 (GeneID 84765),1,1.3
ZNF577 (GeneID 84765),2,-0.744
ZNF577 (GeneID 84765),3,-0.00775
SIKE1 (GeneID 80143),1,6.96 (active)
SIKE1 (GeneID 80143),2,-0.743
SIKE1 (GeneID 80143),3,-0.00819
SRGAP1 (GeneID 57522),1,0.845
SRGAP1 (GeneID 57522),2,4.52
SRGAP1 (GeneID 57522),3,0.438

The list goes on (2 carried over from the part before).
gene symbol,reagent,G2 robust z-score
SRGAP1 (GeneID 57522),2,4.52
SRGAP1 (GeneID 57522),3,0.438
SDAD1 (GeneID 55153),1,0.343
SDAD1 (GeneID 55153),2,-0.0113
SDAD1 (GeneID 55153),3,0.149
ZNF530 (GeneID 348327),1,-0.71
ZNF530 (GeneID 348327),2,-0.444
ZNF530 (GeneID 348327),3,0.388
DDX11 (GeneID 1663),1,-0.485
DDX11 (GeneID 1663),2,1.09
DDX11 (GeneID 1663),3,0.00643
ATF3 (GeneID 467),1,1.83
ATF3 (GeneID 467),2,0.0123
ATF3 (GeneID 467),3,-0.687
